The results in this text go back to publication PMC8262191.

The chains behind the UniProt entries cited, without tags or fusion partners.
UniProt Q15910: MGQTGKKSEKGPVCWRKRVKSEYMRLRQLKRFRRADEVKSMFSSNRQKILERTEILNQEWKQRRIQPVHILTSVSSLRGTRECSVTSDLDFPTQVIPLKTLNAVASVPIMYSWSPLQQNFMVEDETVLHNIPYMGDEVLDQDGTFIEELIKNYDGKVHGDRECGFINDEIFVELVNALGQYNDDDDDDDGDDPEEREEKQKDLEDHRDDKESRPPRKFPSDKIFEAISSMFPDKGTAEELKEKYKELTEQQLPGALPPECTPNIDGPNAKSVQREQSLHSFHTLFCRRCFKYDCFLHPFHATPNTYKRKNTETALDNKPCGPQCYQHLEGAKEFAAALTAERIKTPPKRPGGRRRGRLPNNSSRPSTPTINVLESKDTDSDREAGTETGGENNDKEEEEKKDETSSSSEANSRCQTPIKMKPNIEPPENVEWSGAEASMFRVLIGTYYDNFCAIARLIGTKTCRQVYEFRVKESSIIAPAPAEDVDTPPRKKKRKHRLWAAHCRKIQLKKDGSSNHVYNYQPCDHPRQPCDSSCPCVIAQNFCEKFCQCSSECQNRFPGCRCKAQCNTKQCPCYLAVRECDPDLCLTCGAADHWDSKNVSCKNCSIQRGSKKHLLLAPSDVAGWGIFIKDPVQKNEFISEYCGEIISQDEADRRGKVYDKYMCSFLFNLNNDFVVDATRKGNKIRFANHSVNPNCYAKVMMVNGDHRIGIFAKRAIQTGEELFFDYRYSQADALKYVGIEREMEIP

These are yes or no findings as the source states them, for the method shown. Binding seen in cells or lysates may run through a third protein. Some entries that bind do so weakly or less than the wild type.

The experiment deals with Enhancer of zeste homolog 2 (EZH2) (human (endogenous in Hep-2 and TU-177)) (UniProt Q15910). Description: co-IP; proteins extracted from Hep-2 and TU-177 cells incubated with anti-EZH2 antibody (ab186006) and protein-A/G-agarose beads at 4°C overnight, washed four times with lysis buffer, Western blot.

B1: ZEB1 (protein, UniProt P37275 1-1124)
chain: MADGPRCKRRKQANPRRNNVTNYNTVVETNSDSDDEDKLHIVEEESVTDAADCEGVPEDDLPTDQTVLPGRSSEREGNAKNCWEDDRKEGQEILGPEAQADEAGCTVKDDECESDAENEQNHDPNVEEFLQQQDTAVIFPEAPEEDQRQGTPEASGHDENGTPDAFSQLLTCPYCDRGYKRFTSLKEHIKYRHEKNEDNFSCSLCSYTFAYRTQLERHMTSHKSGRDQRHVTQSGCNRKFKCTECGKAFKYKHHLKEHLRIHSGEKPYECPNCKKRFSHSGSYSSHISSKKCISLIPVNGRPRTGLKTSQCSSPSLSASPGSPTRPQIRQKIENKPLQEQLSVNQIKTEPVDYEFKPIVVASGINCSTPLQNGVFTGGGPLQATSSPQGMVQAVVLPTVGLVSPISINLSDIQNVLKVAVDGNVIRQVLENNQANLASKEQETINASPIQQGGHSVISAISLPLVDQDGTTKIIINYSLEQPSQLQVVPQNLKKENPVATNSCKSEKLPEDLTVKSEKDKSFEGGVNDSTCLLCDDCPGDINALPELKHYDLKQPTQPPPLPAAEAEKPESSVSSATGDGNLSPSQPPLKNLLSLLKAYYALNAQPSAEELSKIADSVNLPLDVVKKWFEKMQAGQISVQSSEPSSPEPGKVNIPAKNNDQPQSANANEPQDSTVNLQSPLKMTNSPVLPVGSTTNGSRSSTPSPSPLNLSSSRNTQGYLYTAEGAQEEPQVEPLDLSLPKQQGELLERSTITSVYQNSVYSVQEEPLNLSCAKKEPQKDSCVTDSEPVVNVIPPSANPINIAIPTVTAQLPTIVAIADQNSVPCLRALAANKQTILIPQVAYTYSTTVSPAVQEPPLKVIQPNGNQDERQDTSSEGVSNVEDQNDSDSTPPKKKMRKTENGMYACDLCDKIFQKSSSLLRHKYEHTGKRPHECGICKKAFKHKHHLIEHMRLHSGEKPYQCDKCGKRFSHSGSYSQHMNHRYSYCKREAEERDSTEQEEAGPEILSNEHVGARASPSQGDSDERESLTREEDEDSEKEEEEEDKEMEELQEEKECEKPQGDEEEEEEEEEVEEEEVEEAENEGEEAKTEGLMKDDRAESQASSLGQKVGESSEQVSEEKTNEA
In the case of B1, the binding result is reported as “binds”.

B2: CDKN1C (protein, UniProt P49918 1-316)
chain: MSDASLRSTSTMERLVARGTFPVLVRTSACRSLFGPVDHEELSRELQARLAELNAEDQNRWDYDFQQDMPLRGPGRLQWTEVDSDSVPAFYRETVQVGRCRLLLAPRPVAVAVAVSPPLEPAAESLDGLEEAPEQLPSVPVPAPASTPPPVPVLAPAPAPAPAPVAAPVAAPVAVAVLAPAPAPAPAPAPAPAPVAAPAPAPAPAPAPAPAPAPAPDAAPQESAEQGANQGQRGQEPLADQLHSGISGRPAAGTAAASANGAAIKKLSGPLISDFFAKRKRSAPEKSSGDVPAPCPSPSAAPGVGSVEQTPRKRLR
Regarding B2, the binding result is on record as “binds weakly”.
